# Source: PubChem BioAssay AID1508600 (Functional Genomics Laboratory (NCATS/FGL), 2020)
# Among all 53,000 sequences or so, about 3,700 (7%) were called active.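 How the source made its calls: active means gene knockdowns whose robust z-score for IL-1 alpha signal is at least 2 or at most -2, so actives lie on both sides; inactive means the rest.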 The list shows a part of the results.
# Assay: Components of the Cytosolic LPS Sensing Pathway: Gene Identification via Genome-wide siRNA Screen;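 further: robust z of the log signal after scaling to non-targeting control siRNA wells of the plate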
# Settings: RAW264.7 macrophages, IL-1a HTRF, actives lie on both sides, screened at 100 nM (by protocol), cells primed 5 h with Pam3CSK4 first
# Summary of the method: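 Knockdown: 100 nM siRNA, 48h, RAW264.7. Stimulation: Pam3CSK4 5 h, then LipidA via TransIT-TKO 24 h. Output: supernatant IL-1a HTRF, negative-control-normalized, log robust z-score; viability by CellTiter-Glo.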
row,Sequence,z-score
1,CGAAAUCAGAACCUGGGAATT against Hacd3,active: 2.73
2,GGAUUGAGUCACUUAUAGATT against Cul4a,inactive: -0.0102
3,GGUGACAAUGACCUUAUAGTT against Adsl,inactive: -0.311
4,UUUACUCUCAUGGUAACCUTT against Olfr798,inactive: -0.386
5,GGCAGCAACUUGAUAAUAATT against Tmem176a,inactive: -1.81
6,GGUUCUAAUAAAAAUCGGUTT against Pcdhb1,inactive: 0.659
7,GGAUGGACAACUGAAGUCATT against Dnajb2,inactive: -1.25
8,GACCAAAGCACUGACUAUGTT against Lyz2,inactive: -0.184
9,CCUACAUAGCGACAUCCUUTT against Car12,inactive: 1.02
10,GGCUCAAAUGGUCACCAAUTT against Ms4a13,inactive: -1.25
11,GGCAGGCAGAAAGCUUUGUTT against Olfr1054,inactive: 1.8
12,GGUACCGUCAGUUGUCCUATT against Rnf4,inactive: -1.86
13,GGUGCUGGUGGAUGAACUATT against Nags,inactive: -1.5
14,GGAGAUGAUUGACCGGCUATT against Epc1,inactive: -1.03
15,GGAGGGAAAGAUCAUUACATT against Kirrel2,inactive: 1.47
16,GCAUUUGUGGCCUAUGCUCTT against Naprt,active: -2.16
17,GGACGUGCUUCCGAAUAGUTT against Scn1a,inactive: 0.317
18,GCUCCUGUACAGUUCAAACTT against Mrpl17,inactive: 0.0768
19,UAUUGUGGACCCAACAGGATT against Olfr1337,inactive: 1.37
20,CCUUAUGUGCCCUUUCAUCTT against AU018091,inactive: -1.08
21,GAAUCUAGAAAAGUGGUGCTT against Lce1d,inactive: -0.943
22,GCCGCACCGAAAGUGAAAUTT against Copz2,inactive: -0.391

row,Sequence,z-score
1,GGUUGGACAACAUAAUAAGTT against Riox2,inactive: 1.17
2,GGCCUUGAAGUCUGAAUUCTT against Fgd2,inactive: -0.936
3,GGUGGGAAGUAUUUAUUUATT against Grasp,inactive: 0.655
4,GGUCAGAAACUUCACCAAGTT against Ccr6,inactive: -1.12
5,GGUAUUGAUCAAUAUGACATT against Ddx46,inactive: -1.13
6,CGAGGAGUGGUAUUUUUACTT against Slc34a1,inactive: 0.0248
7,GGCUAAGUGUGGAAUAGUUTT against 4933427D06Rik,inactive: 1.02
8,GCUAGAGUACAGCAAGCUGTT against Aifm3,inactive: 1.21
9,GGUUCAGCACAAAGAAACATT against Rapgef5,inactive: -1.43
10,GGAUCUUGGCUAAAGAGGGTT against Slc25a25,inactive: 0.0129
11,GGUGCCUUUCUGCUUUUGATT against Spink12,inactive: 1.87
12,GGAGAACACUUUAAUGCUGTT against Ovch2,inactive: 0.00992
13,GGUAUCAGGUACCAACGACTT against Cpne6,inactive: 0.768
14,GGACGGAAUCAGGAACAUUTT against Echdc3,inactive: -0.358
15,GCCUCAAUUCCUCUACGCUTT against Sytl1,inactive: -1.34
16,GGAUGGAUCAUCUUUUCUATT against Nme2,inactive: 1.34
17,GGGACUCAACGCACUUUCUTT against Ambn,inactive: -0.995
18,GGAAGCAGUAUCUCGGAAATT against Slc4a1ap,inactive: 1.08
19,CCAGUGUAGAGCACAAAUCTT against Ahr,active: 2.51
20,GGUGUUACUAAUGUUUAUCTT against Cd209e,inactive: 0.859
21,GGUUCCUGGAUGGUUCCUATT against Vtcn1,inactive: 1.45
22,GGGAAGAGAAGUUAAAGGATT against Wnt8a,inactive: 0.252

row,Sequence,z-score
1,GGCCUUCUCUGUCUUCUACTT against Olfr279,inactive: -0.562
2,CCAGAAUCGAUAGGCAGUCTT against Capn10,inactive: -0.315
3,GGAAGGUUUGUUUUGUUUGTT against Slc24a3,inactive: 0.0291
4,GGUGACACAGCUGCUUUUCTT against Dact2,inactive: 0.107
5,CCCAUCCUUCCAACCAGAATT against Coro2a,inactive: -0.524
6,GCCUAGAUGACCUCAAUGUTT against Fam160b1,inactive: 0.131
7,GGCCCAGAGAGAAAAAUACTT against Acadvl,inactive: -0.633
8,UCCACUUCACUAAUCCUGUTT against Vmn2r43,active: -2.52
9,GGUUCCAUCUUCUCAGGACTT against Olfr395,inactive: 1.01
10,CCUUCAAGCUGUGCUUUUUTT against Olfr820,inactive: -0.0602
11,GGAAUGUCCAAAGCCUUCATT against Olfr907,inactive: 0.289
12,GGGAACAUGUUUUACUCUUTT against Zfp521,inactive: 1.63
13,GGUUCUCUGUACAAGAGAUTT against Smarcb1,inactive: -0.41
14,CCCUGAGCGAUUCAAUCUGTT against Trim27,inactive: -1.27
15,GCAUCGUCCUCCAAAGAUUTT against Sf3b1,active: -3.01
16,CCUGAAAACUCGUGAAGGGTT against Gnb1,inactive: -0.825
17,CGUGUACUCCUGGUUUCCCTT against Hcfc2,inactive: 0.369
18,GGAUCAAGGAGCAAGUGGUTT against B4galnt1,inactive: -1.7
19,CCAUAGACUGAAUCAACUATT against Rgs14,inactive: 1.56
20,CCUUCAACCUUCGAGAUACTT against Kcnh2,inactive: -0.417
21,GGUUACUAGAUGUAUUUUGTT against Ppp3cb,inactive: -0.785
22,GGACGGAGAGUUUAUUUUUTT against Ptgfrn,inactive: -0.468

row,Sequence,z-score
1,GGAAGUUCAAGAAGAUCAUTT against Angel2,inactive: -0.624
2,CCUCAUCUAUCCCAUCUUUTT against Alad,inactive: -0.191
3,GCUGUUUAUCUAGCUGUUATT against Mmp8,inactive: 0.782
4,GGUCUUGAAUUUAUGGAUUTT against Stab1,inactive: 0.0147
5,GGUUUACCUCUAUAAGAAUTT against Tas2r106,inactive: 0.648
6,GGGAAAUGGCUCAUACUGGTT against 2210010C04Rik,inactive: -1.04
7,GCCUUUGUUAAUGUUCGCUTT against Ifi44l,inactive: 0.205
8,AGACAUCGUGCGAUAUUUGTT against Cdkn2a,inactive: -1.69
9,GCUCAGACCAUAGUUUCUATT against A930002I21Rik,inactive: 1.14
10,GCAUGUGAAAUCUAGAUCATT against Cks1b,inactive: -0.0851
11,GGAGCAGCAGAAGAUCCUUTT against Olfr47,active: 2.52
12,CCCUGGUAAACACCAAUAGTT against Ctnna1,inactive: 0.849
13,CCGAAUUUUUCAAUGGCAATT against Pzp,inactive: -0.565
14,GCUGCCGGAAAAGUGUCUATT against Lrrn3,inactive: 0.374
15,CCUUGUUAUAGACCAACCUTT against 2310034C09Rik,inactive: 0.525
16,GGUUUUGAGAAGAUAACUCTT against Zfp236,inactive: 0.67
17,GGCAUUUAGACUUUUUUGATT against Daam1,inactive: -0.399
18,GGAUGUUAUAAGAUUGCGUTT against Rnf170,inactive: -0.0307
19,GGCUAGGUAAUCACUGGGUTT against Fate1,inactive: 0.987
20,GGCUCGUCAGUUCUAAGUUTT against Cxcl10,inactive: 0.54
21,GCUGUGAUGUUCAUUGAUATT against Oas2,inactive: 0.172
22,CCACGAGUUGCUGUCGUCATT against Adam22,inactive: 0.564

row,Sequence,z-score
1,CCCUUUCAUUUACUCGUUGTT against Olfr787,inactive: 0.617
2,GGUCCAUAUGUCUUUUUUCTT against 9430097D07Rik,inactive: 0.237
3,GCUUGAAGCGAGACGAUACTT against Bhlhe41,inactive: -0.349
4,GGCUGUGAAUCUGAAGAGCTT against Chrna6,inactive: 0.241
5,GGACUGUCAAUACUCUUUUTT against Gpr33,inactive: -0.158
6,GCCGUUCCACUCUUGGUAATT against Ranbp6,inactive: 1.26
7,GAAGCCUCUCUAUGUGCACTT against Vmn1r5,inactive: -0.0271
8,GGAACAGCUGACCUACUUUTT against Ahi1,inactive: 1.08
9,GCUAUGCUACUGGUUGUGGTT against Olfr1351,inactive: 0.161
10,GGUACAAACUCUCCCUAGATT against Ube2c,inactive: -1.29
11,GCAGAAUCGCUUCAGUUCUTT against Tmed6,inactive: 0.49
12,GCGACUCCCACAUACUCAGTT against Muc19,inactive: -0.215
13,GGCAGCUAAGUACGUUCAUTT against Gba,inactive: 0.177
14,GGAGAAGUGGUAGAAACUGTT against Brd8,inactive: -1.3
15,GGCCAAAAAAGGGUAUAAGTT against Rad18,inactive: 0.0516
16,GGGACUGUACCCAGUUUAATT against Ccl27a,inactive: 1.62
17,GGCCUAUGUCAGCACUUUATT against Eif3f,inactive: -0.113
18,CCUUAUAGUGCUGAGGAAATT against Orm1,inactive: 1.65

# Part of the list above in another layout:
row | Sequence | z-score
11 | GGAGCAGCAGAAGAUCCUUTT against Olfr47 | active: 2.52
12 | CCCUGGUAAACACCAAUAGTT against Ctnna1 | inactive: 0.849
13 | CCGAAUUUUUCAAUGGCAATT against Pzp | inactive: -0.565
14 | GCUGCCGGAAAAGUGUCUATT against Lrrn3 | inactive: 0.374
15 | CCUUGUUAUAGACCAACCUTT against 2310034C09Rik | inactive: 0.525
16 | GGUUUUGAGAAGAUAACUCTT against Zfp236 | inactive: 0.67
17 | GGCAUUUAGACUUUUUUGATT against Daam1 | inactive: -0.399
18 | GGAUGUUAUAAGAUUGCGUTT against Rnf170 | inactive: -0.0307
19 | GGCUAGGUAAUCACUGGGUTT against Fate1 | inactive: 0.987
20 | GGCUCGUCAGUUCUAAGUUTT against Cxcl10 | inactive: 0.54
21 | GCUGUGAUGUUCAUUGAUATT against Oas2 | inactive: 0.172
1 | CCCUUUCAUUUACUCGUUGTT against Olfr787 | inactive: 0.617
2 | GGUCCAUAUGUCUUUUUUCTT against 9430097D07Rik | inactive: 0.237
3 | GCUUGAAGCGAGACGAUACTT against Bhlhe41 | inactive: -0.349
4 | GGCUGUGAAUCUGAAGAGCTT against Chrna6 | inactive: 0.241
5 | GGACUGUCAAUACUCUUUUTT against Gpr33 | inactive: -0.158
6 | GCCGUUCCACUCUUGGUAATT against Ranbp6 | inactive: 1.26
7 | GAAGCCUCUCUAUGUGCACTT against Vmn1r5 | inactive: -0.0271
8 | GGAACAGCUGACCUACUUUTT against Ahi1 | inactive: 1.08
9 | GCUAUGCUACUGGUUGUGGTT against Olfr1351 | inactive: 0.161
10 | GGUACAAACUCUCCCUAGATT against Ube2c | inactive: -1.29
11 | GCAGAAUCGCUUCAGUUCUTT against Tmed6 | inactive: 0.49
12 | GCGACUCCCACAUACUCAGTT against Muc19 | inactive: -0.215
13 | GGCAGCUAAGUACGUUCAUTT against Gba | inactive: 0.177
14 | GGAGAAGUGGUAGAAACUGTT against Brd8 | inactive: -1.3
17 | GGCCUAUGUCAGCACUUUATT against Eif3f | inactive: -0.113
18 | CCUUAUAGUGCUGAGGAAATT against Orm1 | inactive: 1.65
